Test results: the supplement of paper PMC10849652
This is one part of the list.

The chains behind the UniProt entries cited, without tags or fusion partners. Where a name states a change or a piece, a line headed by the entry shows the natural chain unless it says otherwise.
UniProt P61981: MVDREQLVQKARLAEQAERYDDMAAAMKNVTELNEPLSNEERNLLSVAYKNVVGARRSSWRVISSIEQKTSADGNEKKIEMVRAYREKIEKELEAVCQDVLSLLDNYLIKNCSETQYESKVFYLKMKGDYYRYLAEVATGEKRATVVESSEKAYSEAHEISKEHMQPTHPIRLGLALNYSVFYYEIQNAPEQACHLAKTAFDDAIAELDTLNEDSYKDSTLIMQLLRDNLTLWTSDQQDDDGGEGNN
UniProt Q9Y2Z4: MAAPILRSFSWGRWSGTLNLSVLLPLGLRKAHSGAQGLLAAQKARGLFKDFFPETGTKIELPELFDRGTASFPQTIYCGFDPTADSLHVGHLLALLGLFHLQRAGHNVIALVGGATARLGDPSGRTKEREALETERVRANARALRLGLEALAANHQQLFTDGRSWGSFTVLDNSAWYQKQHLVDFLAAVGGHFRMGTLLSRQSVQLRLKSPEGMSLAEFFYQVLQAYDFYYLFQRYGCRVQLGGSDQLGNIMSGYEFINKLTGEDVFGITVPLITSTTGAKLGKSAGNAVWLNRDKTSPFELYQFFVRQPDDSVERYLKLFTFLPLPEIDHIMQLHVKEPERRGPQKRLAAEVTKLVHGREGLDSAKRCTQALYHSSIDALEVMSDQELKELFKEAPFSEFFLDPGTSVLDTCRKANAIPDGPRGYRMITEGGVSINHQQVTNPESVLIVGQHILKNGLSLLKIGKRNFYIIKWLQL
UniProt O75844: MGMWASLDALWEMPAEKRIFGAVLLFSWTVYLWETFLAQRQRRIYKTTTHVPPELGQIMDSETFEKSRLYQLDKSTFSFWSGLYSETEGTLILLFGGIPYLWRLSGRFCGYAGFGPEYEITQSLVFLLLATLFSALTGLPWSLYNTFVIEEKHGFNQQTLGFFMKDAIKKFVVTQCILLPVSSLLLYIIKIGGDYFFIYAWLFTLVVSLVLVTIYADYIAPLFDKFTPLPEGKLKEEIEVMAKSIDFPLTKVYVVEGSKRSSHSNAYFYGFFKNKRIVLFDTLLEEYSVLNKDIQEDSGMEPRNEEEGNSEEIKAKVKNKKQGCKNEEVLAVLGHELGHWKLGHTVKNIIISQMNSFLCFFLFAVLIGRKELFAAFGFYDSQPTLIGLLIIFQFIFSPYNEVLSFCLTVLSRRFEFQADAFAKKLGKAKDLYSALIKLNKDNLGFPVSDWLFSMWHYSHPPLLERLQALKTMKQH
UniProt Q5BJH7: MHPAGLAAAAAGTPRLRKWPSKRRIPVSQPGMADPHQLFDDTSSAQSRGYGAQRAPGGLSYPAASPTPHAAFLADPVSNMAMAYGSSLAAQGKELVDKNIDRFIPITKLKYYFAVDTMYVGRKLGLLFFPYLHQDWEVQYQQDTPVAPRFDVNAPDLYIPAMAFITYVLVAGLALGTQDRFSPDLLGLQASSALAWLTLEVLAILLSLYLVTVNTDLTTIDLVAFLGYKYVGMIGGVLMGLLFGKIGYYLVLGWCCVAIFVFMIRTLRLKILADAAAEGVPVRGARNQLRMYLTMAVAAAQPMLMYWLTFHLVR
UniProt Q7Z2W4: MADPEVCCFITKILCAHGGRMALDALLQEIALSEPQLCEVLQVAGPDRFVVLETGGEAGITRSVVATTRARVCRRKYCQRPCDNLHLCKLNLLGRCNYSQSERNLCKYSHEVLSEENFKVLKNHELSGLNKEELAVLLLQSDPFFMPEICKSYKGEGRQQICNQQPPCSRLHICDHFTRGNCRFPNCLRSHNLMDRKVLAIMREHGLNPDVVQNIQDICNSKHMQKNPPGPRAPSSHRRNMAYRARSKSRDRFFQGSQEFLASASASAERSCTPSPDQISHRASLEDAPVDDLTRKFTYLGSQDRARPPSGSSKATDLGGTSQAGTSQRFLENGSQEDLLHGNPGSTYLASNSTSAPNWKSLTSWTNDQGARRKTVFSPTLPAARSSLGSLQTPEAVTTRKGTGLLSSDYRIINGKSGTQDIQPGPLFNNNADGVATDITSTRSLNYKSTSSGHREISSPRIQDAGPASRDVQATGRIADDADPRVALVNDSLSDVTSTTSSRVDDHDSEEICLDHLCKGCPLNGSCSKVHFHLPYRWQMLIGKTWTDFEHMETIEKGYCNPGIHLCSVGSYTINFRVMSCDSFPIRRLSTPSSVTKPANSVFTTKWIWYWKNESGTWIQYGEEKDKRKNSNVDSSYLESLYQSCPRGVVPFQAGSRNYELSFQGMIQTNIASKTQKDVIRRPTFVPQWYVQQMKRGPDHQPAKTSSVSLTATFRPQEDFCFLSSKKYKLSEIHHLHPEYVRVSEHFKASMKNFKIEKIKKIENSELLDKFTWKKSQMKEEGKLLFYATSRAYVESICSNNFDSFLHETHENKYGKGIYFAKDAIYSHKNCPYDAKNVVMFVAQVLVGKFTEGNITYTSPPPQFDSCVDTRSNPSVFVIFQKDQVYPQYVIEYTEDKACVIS
UniProt Q9GZM5: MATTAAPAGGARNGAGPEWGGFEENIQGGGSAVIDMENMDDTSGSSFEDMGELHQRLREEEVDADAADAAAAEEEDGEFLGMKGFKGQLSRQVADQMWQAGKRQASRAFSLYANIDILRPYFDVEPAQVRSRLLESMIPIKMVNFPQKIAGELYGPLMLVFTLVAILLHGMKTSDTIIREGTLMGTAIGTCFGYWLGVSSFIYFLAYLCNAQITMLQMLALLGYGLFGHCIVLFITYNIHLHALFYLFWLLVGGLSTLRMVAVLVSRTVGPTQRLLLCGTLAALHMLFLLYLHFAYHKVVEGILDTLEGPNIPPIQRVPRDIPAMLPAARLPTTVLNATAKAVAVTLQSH
UniProt Q9C0E2: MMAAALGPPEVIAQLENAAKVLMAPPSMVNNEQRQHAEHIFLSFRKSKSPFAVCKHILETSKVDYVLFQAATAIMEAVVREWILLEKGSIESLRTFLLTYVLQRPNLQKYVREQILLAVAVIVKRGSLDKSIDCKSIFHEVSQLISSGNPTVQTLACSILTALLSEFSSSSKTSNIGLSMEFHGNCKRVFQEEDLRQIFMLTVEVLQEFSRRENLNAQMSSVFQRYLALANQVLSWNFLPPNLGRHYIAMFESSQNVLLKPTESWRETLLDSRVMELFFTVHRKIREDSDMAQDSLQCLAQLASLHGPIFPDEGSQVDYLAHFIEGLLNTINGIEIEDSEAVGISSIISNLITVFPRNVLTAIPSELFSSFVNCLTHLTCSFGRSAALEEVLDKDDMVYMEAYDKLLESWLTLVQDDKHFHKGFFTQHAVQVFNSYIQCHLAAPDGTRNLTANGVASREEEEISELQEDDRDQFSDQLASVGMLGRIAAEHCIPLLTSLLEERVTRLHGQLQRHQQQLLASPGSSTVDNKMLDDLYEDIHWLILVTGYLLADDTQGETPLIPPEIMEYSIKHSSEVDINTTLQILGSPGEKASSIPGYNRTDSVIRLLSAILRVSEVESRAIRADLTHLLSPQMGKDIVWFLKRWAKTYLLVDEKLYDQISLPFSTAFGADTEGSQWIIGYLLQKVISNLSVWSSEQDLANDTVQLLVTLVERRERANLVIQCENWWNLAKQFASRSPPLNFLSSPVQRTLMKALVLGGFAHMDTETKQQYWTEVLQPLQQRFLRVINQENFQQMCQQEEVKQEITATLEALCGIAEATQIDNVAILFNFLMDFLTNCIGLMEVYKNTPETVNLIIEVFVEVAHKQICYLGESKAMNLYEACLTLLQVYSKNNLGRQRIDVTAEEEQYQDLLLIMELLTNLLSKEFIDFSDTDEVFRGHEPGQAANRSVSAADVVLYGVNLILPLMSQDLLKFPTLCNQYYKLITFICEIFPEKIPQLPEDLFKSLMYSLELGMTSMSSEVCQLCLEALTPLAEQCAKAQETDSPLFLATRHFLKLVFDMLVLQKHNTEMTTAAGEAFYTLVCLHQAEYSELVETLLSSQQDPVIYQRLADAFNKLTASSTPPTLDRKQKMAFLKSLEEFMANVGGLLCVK
UniProt Q5W0Z9: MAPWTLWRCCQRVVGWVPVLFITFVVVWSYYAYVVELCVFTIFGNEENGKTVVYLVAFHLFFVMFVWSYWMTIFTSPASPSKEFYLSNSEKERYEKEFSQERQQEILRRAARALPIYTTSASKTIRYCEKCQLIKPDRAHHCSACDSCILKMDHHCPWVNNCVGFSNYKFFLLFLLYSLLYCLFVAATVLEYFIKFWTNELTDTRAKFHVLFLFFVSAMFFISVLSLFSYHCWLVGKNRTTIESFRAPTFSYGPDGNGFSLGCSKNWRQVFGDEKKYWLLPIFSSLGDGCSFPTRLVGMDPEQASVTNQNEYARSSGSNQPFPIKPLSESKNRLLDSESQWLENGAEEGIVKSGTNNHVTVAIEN

Legend:
Experiment in all cases: log2 fold change, soluble protein after heating vs DMSO (PISA); higher = thermal stabilisation; K562 cells, 10 uM, 30 min; active = over 0.2 and 3.5 SD of the protein, either way, in both replicates (recomputed)
[1] = compound: CC1=C(C=C(C=C1)NC(=O)C2=CC(=CC=C2)C(C)(C)C#N)NC3=CC4=C(C=C3)N=CN(C4=O)C
How it was run: (§1)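 Thermal stability values are relative to control samples and come from duplicates. They are expressed as log2 fold changes. For measurement, K562 cells (2×10^6 cells/mL) received 10 μM compound for 30 min, and aliquots were heated for 3 min over 48°C-58°C, pooled, and extracted at 4°C in PBS with 0.5% NP-40. Soluble protein, the supernatant after 21,000xg for 90 min, was quantified by TMTpro 16plex LC-MS/MS with equalised channel sums.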

[2] = compound: CC1=C(C=C(C=C1)NC(=O)C2=CC(=CC=C2)N(C)C)NC(=O)C3=CC=C(C=C3)O
How it was run: as §1

[3] = compound: CC1=CC=C(C=C1)SC2=C3C=C(SC3=CN=C2)C(=O)N
How it was run: as §1

[4] = compound: CC1=NC(=CC=C1)C2=C(N=C(N2)C(C)(C)C)C3=CC4=NC=CN=C4C=C3
How it was run: as §1

[5] = compound: CCCCN(Cc1ccc(C(=O)NO)cc1)C(=O)Nc1ccccc1 [Nexturastat A]
How it was run: as §1

[6] = compound: CCCS(=O)(=O)Nc1ccc(F)c(C(=O)c2c[nH]c3ncc(-c4ccc(Cl)cc4)cc23)c1F [vemurafenib]
How it was run: as §1

[7] = compound: CCCS(=O)(=O)Nc1ccc(F)c(C(=O)c2c[nH]c3ncc(Cl)cc23)c1F
How it was run: as §1

[8] = compound: CCCc1cc(C)[nH]c(=O)c1CNC(=O)c1cc(-c2ccnc(N3CCN(C)CC3)c2)cc2c1cnn2C(C)C
How it was run: as §1

[9] = compound: CCN(CC)Cc1ccc2cc(COC(=O)Nc3ccc(C(=O)NO)cc3)ccc2c1 [givinostat]
How it was run: as §1

[10] = compound: CCN(CCCOc1ccc2c(Nc3cc(CC(=O)Nc4cccc(F)c4)[nH]n3)ncnc2c1)CCOP(=O)(O)O [barasertib]
How it was run: as §1

[11] = compound: CC[C@@H]1C(=O)N(C)c2cnc(Nc3ccc(C(=O)NC4CCN(C)CC4)cc3OC)nc2N1C1CCCC1
How it was run: as §1

[12] = compound: CC[C@@H]1C(=O)N(C)c2cnc(Nc3ccc(C(=O)N[C@H]4CC[C@H](N5CCN(CC6CC6)CC5)CC4)cc3OC)nc2N1C(C)C [volasertib]
How it was run: as §1

[13] = compound: CC[C@H](C)N1C=C(C2=C(C=C(C=C21)C3=CN=C(C=C3)N4CCNCC4)C(=O)NCC5=C(C=C(NC5=O)C)C)C
How it was run: as §1

[14] = compound: CC[C@H](C)[C@@H](C(=O)N[C@@H]([C@@H](C)O)C(=O)N[C@@H](CC(C)C)C(=O)[C@]1(CO1)C)NC(=O)[C@H]([C@@H](C)CC)N(C)C(=O)C [epoxomicin]
How it was run: as §1

[15] = compound: CCn1c(C(=O)N(C2CC2)C2CC2)cc2c3c(ncn3C)c(Nc3cc(C)n(C)n3)nc21
How it was run: as §1

[16] = compound: CCn1cc(-c2ccnc3[nH]c(-c4cccc(CN(C)C)c4)cc23)c(-c2ccc(NC(=O)N(C)C)cc2)n1
How it was run: as §1

[17] = compound: CN(C)CC(=O)Nc1ccc2[nH]c(=O)c3ccccc3c2c1
How it was run: as §1

[18] = compound: CN(CCOC1=CC=C(C=C1)C[C@H]2C(=O)NC(=O)S2)C3=CC=CC=N3 (racemic) [rosiglitazone]
How it was run: as §1

[19] = compound: CN1C2=C(C3=C1C(=O)N(N=C3)CC4=CC(=CC=C4)N)SC(=C2)S(=O)C
How it was run: as §1

[20] = compound: CN1CCC(CNc2ccc3ncc(-c4cccc(OC(F)(F)F)c4)n3n2)CC1
How it was run: as §1

Measured: log2 fold change

YWHAG (UniProt P61981)
inactive: [1] -0.014 | [2] -0.026 | [3] -0.056 | [4] 0.011 | [5] -0.028 | [6] 0.058 | [7] -0.071 | [8] 0.093 | [9] -0.025 | [10] 0.004 | [11] -0.109 | [12] 0.042 | [13] 0.028 | [14] 0.08 | [15] 0.019 | [16] -0.015 | [17] 0.011 | [18] -0.027 | [19] -0.078 | [20] 0.013

YARS2 (UniProt Q9Y2Z4)
inactive: [1] 0.04 | [2] -0.083 | [3] 0.211 | [4] 0.01 | [5] 0.048 | [6] 0.002 | [7] -0.079 | [8] 0.167 | [9] 0.046 | [10] -0.007 | [11] -0.187 | [12] -0.434 | [13] 0.124 | [14] 0.097 | [15] -0.16 | [16] 0.083 | [17] 0.118 | [18] 0.024 | [19] 0.014 | [20] -0.02

ZMPSTE24 (UniProt O75844)
inactive: [1] 0.067 | [2] 0 | [3] -0.005 | [4] -0.003 | [5] -0.106 | [6] 0.054 | [7] 0.009 | [8] -0.008 | [9] 0.033 | [10] 0 | [11] 0.131 | [12] 0.138 | [13] -0.05 | [14] 0.071 | [15] 0.008 | [16] -0.012 | [17] 0.005 | [18] 0.005 | [19] -0.058 | [20] 0.083

YIF1B (UniProt Q5BJH7)
inactive: [1] 0 | [2] 0.051 | [3] 0.05 | [4] 0.023 | [5] -0.114 | [6] -0.069 | [7] 0.031 | [8] -0.114 | [9] -0.021 | [10] -0.005 | [11] -0.028 | [12] -0.013 | [13] -0.012 | [14] -0.022 | [15] 0.024 | [16] -0.006 | [17] 0.076 | [18] 0.041 | [19] -0.058 | [20] 0.1

ZC3HAV1 (UniProt Q7Z2W4)
inactive: [1] 0.043 | [2] -0.048 | [3] -0.06 | [4] -0.057 | [5] 0.495 | [6] 0.042 | [7] 0.012 | [8] 0.138 | [9] 0.157 | [10] -0.089 | [11] 0.15 | [12] 0.19 | [13] 0.01 | [14] -0.319 | [15] -0.003 | [16] 0.151 | [17] 0.019 | [18] 0.051 | [19] 0.529 | [20] 0.229

YIPF3 (UniProt Q9GZM5)
inactive: [1] 0.046 | [2] 0.087 | [3] 0.013 | [4] -0.045 | [5] -0.019 | [6] -0.034 | [7] 0.015 | [8] -0.043 | [9] -0.06 | [10] -0.006 | [11] -0.026 | [12] -0.113 | [13] -0.023 | [14] 0.005 | [15] -0.023 | [16] 0.01 | [17] 0.057 | [18] 0.01 | [19] -0.055 | [20] 0.002

XPO4 (UniProt Q9C0E2)
inactive: [1] 0.007 | [2] 0.003 | [3] -0.001 | [4] 0.01 | [5] -0.057 | [6] -0.009 | [7] 0.036 | [8] -0.06 | [9] -0.002 | [10] 0.019 | [11] -0.082 | [12] -0.11 | [13] -0.013 | [14] 0.04 | [15] 0.006 | [16] -0.041 | [17] -0.027 | [18] 0.036 | [19] -0.059 | [20] -0.08

ZDHHC20 (UniProt Q5W0Z9)
inactive: [1] -0.067 | [2] 0.085 | [3] 0.014 | [4] -0.007 | [5] -0.149 | [6] 0.049 | [7] 0.138 | [8] -0.079 | [9] -0.167 | [10] 0.022 | [11] 0.031 | [12] 0.011 | [13] -0.046 | [14] -0.102 | [16] -0.016 | [17] -0.026 | [19] 0.084 | [20] 0.035
